These results are taken from US20170037425A1, “METHOD FOR IMPROVING PLANT TRAIT” (SHANGHAI INSTITUTES FOR BIOLOGICAL SCIENCES, CHINESE …, priority 2012, published 2017).

The data set can be described thus: Absorption and fluorescence of LEAT proteins and their mutants. To be noted: for Fluorescence: fluorescence intensity in words, recombinant protein from E. coli. It counts as physicochemical. The source says: FIG. 7. Absorption spectra of YFP (A, B) and mCherry (E, F) and their mutants. (B) is a zoom in view of YFPmu4 and YFPmu7 in (A). (F) is a zoom in view of mCherrymu4 and mCherrymu7 in (E). Fluorescence of YFP (C) and mCherry (G) and their mutant. Water hydrolysis and O2 evolution activities of YFP (D) and mCherry (H) and their mutants under light. (A, B, C, E, F, G): absorption and fluorescence intensities were compared with same concentrations of proteins. Absorption intensity of non-mutated YFP or mCherry is considered as 1, and fluorescence intensity of non-mutated YFP or mCherry is considered as 100.

As to “YFP: yellow fluorescent protein, amino acid sequence SEQ ID NO: 8”, the Fluorescence result was “strong”.
Regarding “eqFP611: fluorescent protein from Entacmaea quadricolor (AY130757), SEQ ID NO: 30”, the Fluorescence entry was “weak”.
Take “mCherry: red fluorescent protein, amino acid sequence SEQ ID NO: 2”: the Fluorescence entry is “Srong”.
Regarding “mCherrymu3: mCherry mutant S151C S152C K167M, SEQ ID NO: 22”, under “same protein concentration”, the “absorbance, decreased to % of original protein” value amounted to 40% and the “fluorescence, decreased to % of original (WT) protein” value worked out at 4%.
Consider “mCherrymu4: mCherry mutant S151C S152C K167M I202A, SEQ ID NO: 24”, for which the “fluorescence, decreased to % of original (WT) protein” value (same protein concentration) is recorded as “about 3%”.
Still for that read-out and setting: then “mCherrymu5: mCherry mutant S151C S152C H166N K167M I202A, SEQ ID NO: 26”, with about 5%.
